Test results from US20160251636.
Construct, isoform or probe ends are uncertain for at least one entry.

Chains of the proteins cited; added tags and fusions are not shown. Lines headed by an entry give the natural chain unless they say otherwise; changes in a name come on top.
UniProt O14746: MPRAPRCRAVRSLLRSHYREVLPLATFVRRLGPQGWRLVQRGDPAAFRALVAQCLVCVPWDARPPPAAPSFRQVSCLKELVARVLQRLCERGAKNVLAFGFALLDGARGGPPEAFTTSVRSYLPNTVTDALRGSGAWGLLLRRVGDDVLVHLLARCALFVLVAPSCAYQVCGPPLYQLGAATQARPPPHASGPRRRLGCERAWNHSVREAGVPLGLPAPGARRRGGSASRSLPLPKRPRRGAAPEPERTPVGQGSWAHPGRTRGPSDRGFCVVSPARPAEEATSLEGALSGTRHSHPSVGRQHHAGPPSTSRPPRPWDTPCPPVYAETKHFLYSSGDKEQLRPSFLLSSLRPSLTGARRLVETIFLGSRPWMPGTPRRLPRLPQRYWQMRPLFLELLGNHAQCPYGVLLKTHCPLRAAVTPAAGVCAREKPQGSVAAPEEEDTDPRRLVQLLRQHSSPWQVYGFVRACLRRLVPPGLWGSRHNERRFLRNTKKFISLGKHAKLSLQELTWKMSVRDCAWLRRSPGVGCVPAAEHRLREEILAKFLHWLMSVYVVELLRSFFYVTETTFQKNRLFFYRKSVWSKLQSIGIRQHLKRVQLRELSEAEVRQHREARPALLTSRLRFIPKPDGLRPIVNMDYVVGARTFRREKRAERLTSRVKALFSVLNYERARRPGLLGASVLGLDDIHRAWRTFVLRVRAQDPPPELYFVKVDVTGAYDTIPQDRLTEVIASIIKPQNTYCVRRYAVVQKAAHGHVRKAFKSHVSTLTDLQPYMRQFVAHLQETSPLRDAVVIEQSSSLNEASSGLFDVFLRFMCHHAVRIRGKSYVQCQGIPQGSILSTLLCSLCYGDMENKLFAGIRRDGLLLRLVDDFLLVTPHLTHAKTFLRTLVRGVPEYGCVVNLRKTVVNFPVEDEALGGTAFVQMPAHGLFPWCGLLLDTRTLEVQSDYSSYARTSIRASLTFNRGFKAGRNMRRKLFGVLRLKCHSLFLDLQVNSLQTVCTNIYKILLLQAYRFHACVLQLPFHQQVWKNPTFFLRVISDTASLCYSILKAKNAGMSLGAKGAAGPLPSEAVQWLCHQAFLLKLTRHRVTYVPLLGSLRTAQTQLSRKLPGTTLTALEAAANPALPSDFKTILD

Assays:
[1] = target: cMBP-hTERT (human telomerase reverse transcriptase) (Homo sapiens) (UniProt O14746); test: activity assay; details: telomerase activity reconstituted with 500 ng hTR and 100 ng protein (direct assay, TRAP, qTRAP); qTRAP around 9000 fold higher than in one 293T cell; purified recombinant protein; label: 32P (alpha-32P-CTP, internal) in EMSA
[2] = target: cMBP-hTERT (human telomerase reverse transcriptase) (Homo sapiens) (UniProt O14746); test: EMSA; details: 1 ug protein with 0.5 ug hTR in 20 ul, 1 h; 1.2% agarose 1xTBE; protein prepared with RNase A gives aggregates in wells; purified recombinant protein; label: 32P (alpha-32P-CTP, internal) in EMSA

GAGUGACUCUCACGAGAGCCGCGAGAGUCAGCUUGGCCAAUCCGUGCGGUCGGCGGCCGCUCCCUUUAUAAGCCGACUCGCCCGGCAGCGCACCGGGUUGCGGAGGGUGGGCCUGGGAGGGGUGGUGGCCAUUUUUUGUCUAACCCUAACUGAGAAGGGCGUAGGCGCCGUGCUUUUGCUCCCCGCGCGCUGUUUUUCUCGCUGACUUUCAGCGGGCGGAAAAGCCUCGGCCUGCCGCCUUCCACCGUUCAUUCUAGAGCAAACAAAAAAUGUCAGCUGCUGGCCCGUUCGCCCCUCCCGGGGACCUGCGGCGGGUCGCCUGCCCAGCCCCCGAACCCCGCCUGGAGGCCGCGGUCGGCCCGGGGCUUCUCCGGAGGCACCCACUGCCACCGCGAAGAGUUGGGCUCUGUCAGCCGCGGGUCUCUCGGGGGCGAGGGCGAGGUUCAGGCCUUUCAGGCCGCAGGAAGAGGAACGGAGCGAGUCCCCGCGCGCGGCGCGAUUCCCUGAGCUGUGGGACGUGCACCCAGGACUCGGCUCACACAUGC [hTR (human telomerase RNA)]
activity on this sequence [1]: active | binding result [2]: binds
